Results from paper PMC4917448 (Journal of biomolecular screening, 2016).

Experiments:
[1] = test system: HCT116 cells; experiment: CellTiter-Glo cell viability assay in HCT116; assay type: cell-based; details: Homo sapiens, HCT-116, 1 h, read-out: Viability: IC50, HCT116
[2] = test system: human neural stem cells; experiment: CellTiter-Glo cell viability assay in hNSC; assay type: cell-based; details: 1 h, read-out: Viability: IC50, hNSC
[3] = test system: class I and II HDAC enzymes; experiment: Panel of fluorogenic assays against ten class I and II HDAC isoforms; assay type: biochemical, human; details: 20 μM

| IC50 [1] | inhibition against all class I and II HDAC enzymes [3] | inhibition of HDAC isoforms (in words) ([3]; Figure 3) | SMILES | IC50 [2] |
| --- | --- | --- | --- | --- |
| 26.7 ± 10.3 µM | – | – | CNC(=O)c1ccccc1Sc1ccc2c(/C=C/c3ccccn3)n[nH]c2c1 [Axitinib] | 26.8 ± 6.13 µM |
| – | over 80% | inhibited activities of all isoforms | O=C(CCCCCCC(=O)Nc1ccccc1)NO [Vorinostat, suberoylanilide hydroxamic acid] | – |
